Laboratory results: PubChem BioAssay AID652243 (Drosophila RNAi Screening Center, 2013)
Purpose: 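Fly genes required for human androgen receptor driven transcription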 (primary screen). Cells: Drosophila S2R+ cells. Knock-down reagent: long dsRNA against Drosophila genes. Duration: 72 h (48 h, then 24 h hormone). Treatment: synthetic androgen R1881 at 10 nM for 24 h. Measured: 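Firefly light from an androgen-responsive reporter and Renilla control light per well, raw and unnormalised, for each of two replicates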. Direction: firefly reporter light: higher = more light from androgen-responsive reporter; Renilla control light: higher = more constitutive control signal (cell number, transfection). Hit rule: 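Across duplicate plates, a knock-down whose log firefly/Renilla ratio shifted a set fold down or up from the GFP/LacZ control mean was a hit; the downward cut appears as both 1.5 and 3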. Meaning of the calls: active = hit: reporter lowered or raised; inactive = no hit.
The screen tested about 24,000 reagents; this is a random part of those that have a named target and a result. In the full data, 246 (1%) got an active call. 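Plates not normalised; calls are printed but the firefly/Renilla ratio behind them is not deposited; fold cut for lowering reported inconsistently.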 Raw values are not corrected between plates. Not stated in the record: the amount of reagent.

target gene | DRSC id | firefly reporter light, replicate 1 | firefly reporter light, replicate 2 | Renilla control light, replicate 1 | Renilla control light, replicate 2 | activity call
MED31 (Mediator complex subunit 31) | DRSC23432 | 3.25e5 | 3.65e5 | 6.50e5 | 4.98e5 | inactive
eya (eyes absent) | DRSC03510 | 8.94e5 | 1.24e6 | 1.69e6 | 1.91e6 | inactive
eya (eyes absent) | DRSC37547 | – | – | – | – | inactive
eya (eyes absent) | DRSC39294 | – | – | – | – | inactive
CG13102 | DRSC02202 | 2.28e5 | 2.14e5 | 1.61e6 | 1.09e6 | inactive
mfas (midline fasciclin) | DRSC16997 | 39631 | 43519 | 2.42e5 | 3.30e5 | inactive
mfas (midline fasciclin) | DRSC28658 | 2.74e5 | 2.98e5 | 9.50e5 | 1.06e6 | inactive
Pfdn1 (Prefoldin 1) | DRSC02325 | 1.56e5 | 1.57e5 | 2.16e6 | 1.42e6 | inactive
Pfdn1 (Prefoldin 1) | DRSC26624 | 3.46e5 | 3.44e5 | 7.68e5 | 6.03e5 | inactive
CG3505 | DRSC15489 | 1.09e5 | 76397 | 6.62e5 | 7.65e5 | inactive
CG6893 | DRSC10742 | 2.29e5 | 1.81e5 | 2.21e6 | 2.34e6 | inactive
CG34450 | DRSC17822 | 1.08e5 | 1.03e5 | 1.08e6 | 8.31e5 | inactive
CG34450 | DRSC25085 | 6.67e5 | 9.23e5 | 8.95e5 | 1.02e6 | inactive
CG34149 | DRSC14537 | 71696 | 85371 | 6.27e5 | 6.18e5 | inactive
Septin4 (Septin 4) | DRSC20205 | 1.07e5 | 1.06e5 | 7.27e5 | 8.18e5 | inactive
Septin4 (Septin 4) | DRSC25409 | 1.21e6 | 1.35e6 | 1.47e6 | 1.45e6 | inactive
fbl (fumble) | DRSC11886 | 4.54e5 | 2.47e5 | 3.38e6 | 2.73e6 | inactive
fbl (fumble) | DRSC27922 | 4.74e5 | 4.07e5 | 1.33e6 | 1.36e6 | inactive
fbl (fumble) | DRSC29115 | 7.29e5 | 1.02e6 | 1.42e6 | 1.28e6 | inactive
betaNACtes4 (Nascent-associated complex beta-subunit-like, testis 4) | DRSC19801 | 4.32e5 | 3.63e5 | 2.54e6 | 2.89e6 | inactive
CG10140 | DRSC09704 | 3.18e5 | 2.60e5 | 3.00e6 | 2.68e6 | inactive
CG10140 | DRSC26220 | 3.68e5 | 3.30e5 | 8.30e5 | 8.78e5 | inactive
Nadk1a (NAD kinase 1a) | DRSC05431 | 88806 | 1.77e5 | 1.72e5 | 2.11e5 | inactive
Nadk1a (NAD kinase 1a) | DRSC06963 | 1.15e6 | 7.90e5 | 3.10e6 | 2.40e6 | inactive

6 entries from above, reformatted:
fbl (fumble) [DRSC11886]: firefly reporter light, replicate 1 = 4.54e5; firefly reporter light, replicate 2 = 2.47e5; Renilla control light, replicate 1 = 3.38e6; Renilla control light, replicate 2 = 2.73e6; activity call = inactive
fbl (fumble) [DRSC27922]: firefly reporter light, replicate 1 = 4.74e5; firefly reporter light, replicate 2 = 4.07e5; Renilla control light, replicate 1 = 1.33e6; Renilla control light, replicate 2 = 1.36e6; activity call = inactive
fbl (fumble) [DRSC29115]: firefly reporter light, replicate 1 = 7.29e5; firefly reporter light, replicate 2 = 1.02e6; Renilla control light, replicate 1 = 1.42e6; Renilla control light, replicate 2 = 1.28e6; activity call = inactive
betaNACtes4 (Nascent-associated complex beta-subunit-like, testis 4) [DRSC19801]: firefly reporter light, replicate 1 = 4.32e5; firefly reporter light, replicate 2 = 3.63e5; Renilla control light, replicate 1 = 2.54e6; Renilla control light, replicate 2 = 2.89e6; activity call = inactive
CG10140 [DRSC09704]: firefly reporter light, replicate 1 = 3.18e5; firefly reporter light, replicate 2 = 2.60e5; Renilla control light, replicate 1 = 3.00e6; Renilla control light, replicate 2 = 2.68e6; activity call = inactive
CG10140 [DRSC26220]: firefly reporter light, replicate 1 = 3.68e5; firefly reporter light, replicate 2 = 3.30e5; Renilla control light, replicate 1 = 8.30e5; Renilla control light, replicate 2 = 8.78e5; activity call = inactive

The listing continues.
target gene | DRSC id | firefly reporter light, replicate 1 | firefly reporter light, replicate 2 | Renilla control light, replicate 1 | Renilla control light, replicate 2 | activity call
RFeSP (Rieske iron-sulfur protein) | DRSC00702 | 1.52e5 | 1.66e5 | 1.15e6 | 1.25e6 | inactive
RFeSP (Rieske iron-sulfur protein) | DRSC27607 | 3.17e5 | 2.61e5 | 5.54e5 | 4.77e5 | inactive
Nph (Nucleophosmin) | DRSC16342 | 2.39e5 | 1.68e5 | 2.59e6 | 2.51e6 | inactive
St3 (Sulfotransferase 3) | DRSC04098 | 2.97e5 | 3.39e5 | 2.44e6 | 2.28e6 | inactive
St3 (Sulfotransferase 3) | DRSC04505 | 6.87e5 | 7.02e5 | 1.03e6 | 1.29e6 | inactive
Cdc50 (Cell division cycle 50) | DRSC20224 | 4.43e5 | 5.40e5 | 3.14e6 | 3.17e6 | inactive
Pif1 (Pif1 DNA helicase) | DRSC00582 | 8.80e5 | 1.16e6 | 2.41e6 | 2.20e6 | inactive
CarT (Carcinine transporter) | DRSC03196 | 9.15e5 | 8.53e5 | 1.14e6 | 1.32e6 | inactive
CarT (Carcinine transporter) | DRSC27070 | 2.65e5 | 2.11e5 | 6.59e5 | 4.95e5 | inactive
CG34224 | DRSC38880 | 7.02e5 | 6.03e5 | 1.85e6 | 1.91e6 | inactive
psq (pipsqueak) | DRSC23094 | 7.09e5 | 9.88e5 | 1.49e6 | 1.55e6 | inactive
psq (pipsqueak) | DRSC38444 | 8.87e5 | 8.98e5 | 1.92e6 | 1.78e6 | inactive
Maf1 | DRSC37750 | 9.26e5 | 9.96e5 | 1.97e6 | 2.63e6 | inactive
H15 | DRSC03339 | 1.13e5 | 1.13e5 | 9.88e5 | 9.38e5 | inactive
H15 | DRSC22199 | 6.23e5 | 5.44e5 | 2.43e6 | 1.99e6 | inactive
H15 | DRSC25176 | 5.31e5 | 7.58e5 | 6.66e5 | 5.75e5 | inactive
